# Structures can show the parent of a compound that is named as a salt. This is one part of the list. Single values are uncertain here, since repeats match poorly.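 Human embryonic kidney cells were transiently transfected with a plasmid bearing a Renilla luciferase gene under the HSV-TK promoter. This first-round screen tests roughly ten thousand compounds for ones that increase reporter output.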
# Test system: HEK 293FT
# Experiment: log relative Renilla luciferase luminescence (reporter expression vs reference, reference not stated) (log (base not stated)); higher = higher recombinant reporter expression
# Details: 10 µM; time after transfection 48 h
row,Compound,log
1,CC(CCc1ccccc1)NC(C)C(O)c1ccc(O)cc1 (stereo unspecified) [nylidrin hydrochloride],-0.0134
2,COc1cccc(C2(O)CCCCC2CN(C)C)c1 (stereo unspecified) [tramadol hydrochloride],0.129
3,CC(=O)OC1CN2CCC1CC2 (stereo unspecified) [aceclidine],-0.0325
4,C[N+](C)(C)CCCCCCCCCC[N+](C)(C)C [decamethonium bromide],-0.207
5,c1ccc2nc(N3CCNCC3)ccc2c1 [quipazine maleate],0.138
6,Cc1cc(OC(=O)N2CCCCC2)c(C(C)C)cc1[N+](C)(C)C,0.0556
7,C=C(C)c1cc2cc(C(C)=O)c(O)cc2o1 [euparin],0.0192
8,CN1C[C@H](C(=O)N[C@]2(C)O[C@@]3(O)[C@@H]4CCCN4C(=O)[C@H](Cc4ccccc4)N3C2=O)C[C@@H]2c3cccc4[nH]cc(c34)C[C@H]21 [dihydroergotamine mesylate],-0.141
9,C[N+]1(C)[C@@H]2CC[C@H]1C[C@@H](OC(=O)C(CO)c1ccccc1)C2 (stereo partly specified) [methylatropine nitrate],-0.279
10,Oc1cccc2cccnc12 [oxyquinoline sulfate],0.0663
11,CC(C)(O)C(Cl)(Cl)Cl [chlorobutanol],0.117
12,CC1=C(O)C(=O)C=C2C1=CC=C1[C@@]2(C)CC[C@@]2(C)[C@@H]3C[C@](C)(C(=O)O)CC[C@]3(C)CC[C@]12C [celastrol],-2.15
13,CC(=O)Oc1ccc(/C=C/c2cc(OC(C)=O)cc(OC(C)=O)c2)cc1 [triacetylresveratrol],-0.0675
14,N#C/C(=C\c1ccc(O)cc1)C(=O)O [alpha-cyano-4-hydroxycinnamic acid],0.0319
15,CCCN1C[C@H](CSC)C[C@@H]2c3cccc4[nH]cc(c34)C[C@H]21 [pergolide mesylate],-0.0596
16,N.N.[Cl][Pt][Cl] [cisplatin],0.0757
17,CCCCCCCCCc1ccc(O)cc1 [4-nonylphenol],0.0818
18,COc1ccc2[nH]cc(CCN)c2c1 [mexamine],-0.0885
19,CNc1ccc(C(=O)CC(O)CCC(C)C2OC(=O)CC(O)CC(=O)CC(O)CC(O)CC(O)CC(O)CC3(O)CC(O)C(C(=O)OC)C(CC(O[C@@H]4O[C@H](C)[C@@H](O)[C@H](N)[C@@H]4O)/C=C/C=C/C=C/C=C/C=C/C=C/C=C/C2C)O3)cc1.COC(=O)C1C(O)CC2(O)CC(O)CC(O)CC(O)CC(O)CC(=O)CC(O)CC(=O)OC(C(C)CCC(O)CC(=O)c3ccc(N)cc3)C(C)/C=C/C=C/C=C/C=C/C=C/C=C/C=C/C(O[C@@H]3O[C@H](C)[C@@H](O)[C@H](N)[C@@H]3O)CC1O2 (stereo partly specified) [mepartricin],-0.522
20,Cc1ncc(CNC(=O)N(CCCl)N=O)c(N)n1 [nimustine],0.0166
21,COC(=O)[C@]1(C)CC[C@]2(C)CC[C@]3(C)C4=CC=C5C(=CC(=O)C(O)=C5C)[C@]4(C)CC[C@@]3(C)[C@@H]2C1 [pristimerin],-1
22,CN1CCCCC1c1ccc(-c2cccnc2)nc1 (stereo unspecified) [anabasamine hydrochloride],-0.0383

row,Compound,log
1,Cc1cc(O)ccc1Cl [chlorocresol],0.054
2,C=C(C)[C@H]1CN[C@H](C(=O)O)[C@H]1CC(=O)O [kainic acid],0.00301
3,CC(=O)O[C@H]1C[C@@H](OC(C)=O)C(C)(C)C2C[C@@H](OC(C)=O)[C@]3(C)C(CC[C@@]4(C)[C@H](c5ccoc5)C(=O)[C@H]5O[C@]543)[C@]21C (stereo partly specified) [khayanthone],0.131
4,C[C@@H]1CC[C@@]2(OC1)O[C@H]1[C@@H](O)[C@H]3[C@@H]4CC[C@H]5C[C@@H](O[C@@H]6O[C@H](CO)[C@H](O[C@@H]7O[C@H](CO)[C@@H](O)[C@H](O[C@@H]8OC[C@@H](O)[C@H](O)[C@H]8O)[C@H]7O[C@@H]7O[C@H](CO)[C@H](O)[C@H](O[C@@H]8O[C@H](CO)[C@@H](O)[C@H](O)[C@H]8O)[C@H]7O)[C@H](O)[C@H]6O)[C@H](O)C[C@]5(C)[C@H]4CC[C@]3(C)[C@H]1[C@@H]2C [digitonin],-0.121
5,"Nc1ncn[nH]1 [3-amino-1,2,4-triazole]",0.0488
6,COc1ccc(CN2CCNCC2)c(OC)c1OC [trimetazidine dihydrochloride],-0.361
7,CC(C)=CCCC1(C)C=Cc2c(O)c3c(c(CC=C(C)C)c2O1)OC12C(CC4CC1C(C)(C)OC2(C/C=C(/C)C(=O)O)C4O)C3=O (stereo unspecified) [tetrahydrogambogic acid],-0.0219
8,CC[C@H]1CN2CC[C@H]1C[C@@H]2[C@@H](O)c1ccnc2ccc(OC)cc12 [hydroquinidine],0.0205
9,C=C[C@H]1CN2CC[C@H]1C[C@H]2[C@H](OC(=O)OCC)c1ccnc2ccc(OC)cc12 [quinine ethyl carbonate],-0.256
10,CC(C)[C@@H]1NC(=O)[C@H](C)OC(=O)[C@@H](C(C)C)NC(=O)[C@@H](C(C)C)OC(=O)[C@H](C(C)C)NC(=O)[C@H](C)OC(=O)[C@@H](C(C)C)NC(=O)[C@@H](C(C)C)OC(=O)[C@H](C(C)C)NC(=O)[C@H](C)OC(=O)[C@@H](C(C)C)NC(=O)[C@@H](C(C)C)OC1=O [valinomycin],-1.34
11,CC(=O)Oc1c2c(c(CC=C(C)C)c3c1C(=O)C1=C[C@@H]4CC5C(C)(C)OC(C/C=C(\C)C(=O)O)(C4=O)[C@@]15O3)OC(C)(CCC=C(C)C)C=C2 (stereo partly specified) [acetyl isogambogic acid],-1.48
12,O=[N+]([O-])O[C@@H]1CO[C@H]2[C@@H]1OC[C@@H]2O [isosorbide mononitrate],-1.64
13,CC1=CC(=O)c2c(O)cccc2C1=O [plumbagin],-1.69
14,NC(=O)c1ccc(N)nc1 [6-aminonicotinamide],0.0146
15,N[C@@H](Cc1ccc(N(CCCl)CCCl)cc1)C(=O)O [melphalan],-0.161
16,CC(C)N(CCC(C(N)=O)(c1ccccc1)c1ccccn1)C(C)C (stereo unspecified) [disopyramide phosphate],-0.169
17,N=C(N)NN [pimagedine hydrochloride],-0.231
18,C[C@H](N)[C@H](O)c1ccc(O)c(O)c1 [levonordefrin],0.186
19,CN1[C@@H]2CC[C@H]1C[C@@H](OC(=O)[C@H](CO)c1ccccc1)C2 [hyoscyamine],-0.0206
20,Nc1nc(N)nc(NC2CC2)n1 [cyromazine],0.0595
21,Cc1ccc(-c2nc3ccc(C)cn3c2CC(=O)N(C)C)cc1 [zolpidem],0.154
22,C[C@H]1O[C@H](O[C@H]2[C@H](O)[C@@H](O)[C@@H](O)[C@H](O)[C@@H]2O)[C@@H](N)C[C@@H]1NC(=N)C(=O)O [kasugamycin hydrochloride],0.0905

# Some of the entries so far, tab-delimited.
row	Compound	log
3	CC(=O)OC1CN2CCC1CC2 (stereo unspecified) [aceclidine]	-0.0325
18	COc1ccc2[nH]cc(CCN)c2c1 [mexamine]	-0.0885

# Further records:

row,Compound,log
1,COc1ccc2c(c1)[C@]13CCCC[C@@H]1[C@H](C2)N(C)CC3 [dextromethorphan hydrobromide],0.054
2,CC1=NCCc2c1[nH]c1cc(O)ccc21 [harmalol hydrochloride],0.0787
3,C[C@H]1O[C@@H](O[C@H]2[C@@H](O)C[C@H](O[C@H]3[C@@H](O)C[C@H](O[C@H]4CC[C@@]5(C)[C@H](CC[C@@H]6[C@@H]5CC[C@]5(C)[C@@H](C7=CC(=O)OC7)[C@@H](O)C[C@]65O)C4)O[C@@H]3C)O[C@@H]2C)C[C@H](O)[C@@H]1O [gitoxin],-1.28
4,C=C[C@H]1CN2CC[C@H]1C[C@H]2[C@H](O)c1ccnc2ccccc12 [cinchonidine],0.179
5,"CNNC [1,2-dimethylhydrazine hydrochloride]",-0.0363
6,O=C1C=CC(=O)c2c(O)cccc21 [juglone],-0.246
7,OC[C@@H]1CCCN2CCCC[C@H]12 [lupinine],-0.291
8,C=CC[C@]1(O)CC[C@H]2[C@@H]3CCC4=CC(=O)CCC4=C3C=C[C@@]21C [altrenogest],0.0398
9,COc1cc(OC)c2c(c1)O[C@H](c1ccc(OC)c(OC)c1)[C@@H](O)C2 [catechin tetramethylether],0.00551
10,C=C[C@H]1CN2CC[C@H]1C[C@@H]2[C@@H](O)c1ccnc2ccccc12 [cinchonine],0.172
11,C=CCN=C=S [allylisothiocyanate],-1.47
12,CC(Cc1ccc(O)cc1)NCC(O)c1cc(O)cc(O)c1 (stereo unspecified) [fenoterol hydrobromide],-0.00743
13,C1CCc2nnnn2CC1 [pentylenetetrazol],-0.17
14,C[C@]12CC[C@@H](O)C[C@@H]1CC[C@@H]1[C@@H]2CC[C@]2(C)C(=O)CC[C@@H]12 [androsterone],0.0279
15,CC(=O)O[C@@H]1C[C@@]2(C)[C@H](c3ccoc3)C[C@H]3O[C@]32[C@]2(C)C(=O)C(O)=C3C(C)(C)C(=O)C=C[C@]3(C)[C@@H]12 [anthothecol],-1.67
16,O=c1[nH]c2ccccc2n1CCCN1CCC(n2c(=O)[nH]c3cc(Cl)ccc32)CC1 [domperidone],0.0224
17,COC(=O)C1=CO[C@@H](C)[C@H]2CN3CC[C@]4(C(=O)Nc5ccccc54)[C@@H]3C[C@H]12 [mitraphylline],0.0516
18,N#C/C(=C\c1cccc(O)c1)C(=O)O [alpha-cyano-3-hydroxycinnamic acid],-0.0684
19,O=C([O-])c1ccccc1-c1c2cc(Br)c(=O)cc-2oc2[c]([Hg+])c([O-])c(Br)cc12.[Na+].[Na+].[OH-] [merbromin],-0.0681
20,CC(C)[N+](C)(CCC(C(N)=O)(c1ccccc1)c1ccccc1)C(C)C [isopropamide iodide],0.166
21,C#C[C@]1(O)CC[C@H]2[C@@H]3CCC4=CC(=O)CC[C@]4(C)[C@H]3CC[C@@]21C [ethisterone],0.0795
22,CC(C)CC(N(C)C)C1(c2ccc(Cl)cc2)CCC1 (stereo unspecified) [sibutramine hydrochloride],0.004

# Taken from above, two compounds:
row,Compound,log
22,C[C@H]1O[C@H](O[C@H]2[C@H](O)[C@@H](O)[C@@H](O)[C@H](O)[C@@H]2O)[C@@H](N)C[C@@H]1NC(=N)C(=O)O [kasugamycin hydrochloride],0.0905
1,COc1ccc2c(c1)[C@]13CCCC[C@@H]1[C@H](C2)N(C)CC3 [dextromethorphan hydrobromide],0.054

# Reference: the supplement of paper PMC7024190
